The series in a line: general procedure: solution-phase peptide synthesis; EDC/HOBT. The settings on record: late stage modification step.

For the substance “N-(N-AcetylTyrosinyl-Valinyl-Alaninyl)-3-amino-4-oxo-8-phenyl octanoic acid”, the step yield stood at 80%.
In turn, “N-(N-AcetylTyrosinyl-Valinyl-Alaninyl)-3-amino-4-oxo-9-phenyl nonanoic acid” gave a step yield of 80%.

The values above are taken from patent US5434248 (dated 1995).
